Consider five targets from the supplement of paper PMC12819154, “High-throughput peptide-centric local stability assay extends protein–ligand identification to membrane proteins, tissues and bacteria” (Nature Structural & Molecular Biology, 2025).

Chains of the proteins cited; added tags and fusions are not shown. Lines headed by an entry give the natural chain unless they say otherwise; changes in a name come on top.
UniProt Q8R4U6: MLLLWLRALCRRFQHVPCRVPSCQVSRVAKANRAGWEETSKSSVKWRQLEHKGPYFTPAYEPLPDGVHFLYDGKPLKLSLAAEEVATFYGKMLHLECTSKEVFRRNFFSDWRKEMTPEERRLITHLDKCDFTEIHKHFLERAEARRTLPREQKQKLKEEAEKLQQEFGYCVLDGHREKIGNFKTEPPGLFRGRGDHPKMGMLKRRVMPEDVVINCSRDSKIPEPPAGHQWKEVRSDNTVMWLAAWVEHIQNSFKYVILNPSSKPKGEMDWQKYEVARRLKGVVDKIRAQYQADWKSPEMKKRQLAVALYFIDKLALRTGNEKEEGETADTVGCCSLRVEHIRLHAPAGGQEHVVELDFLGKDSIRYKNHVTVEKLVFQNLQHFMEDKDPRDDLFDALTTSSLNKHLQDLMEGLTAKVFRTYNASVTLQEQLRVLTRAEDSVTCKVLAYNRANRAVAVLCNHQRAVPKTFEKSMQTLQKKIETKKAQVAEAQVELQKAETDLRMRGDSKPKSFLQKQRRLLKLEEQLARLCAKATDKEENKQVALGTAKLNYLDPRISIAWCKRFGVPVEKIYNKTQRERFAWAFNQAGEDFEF
UniProt Q8R418: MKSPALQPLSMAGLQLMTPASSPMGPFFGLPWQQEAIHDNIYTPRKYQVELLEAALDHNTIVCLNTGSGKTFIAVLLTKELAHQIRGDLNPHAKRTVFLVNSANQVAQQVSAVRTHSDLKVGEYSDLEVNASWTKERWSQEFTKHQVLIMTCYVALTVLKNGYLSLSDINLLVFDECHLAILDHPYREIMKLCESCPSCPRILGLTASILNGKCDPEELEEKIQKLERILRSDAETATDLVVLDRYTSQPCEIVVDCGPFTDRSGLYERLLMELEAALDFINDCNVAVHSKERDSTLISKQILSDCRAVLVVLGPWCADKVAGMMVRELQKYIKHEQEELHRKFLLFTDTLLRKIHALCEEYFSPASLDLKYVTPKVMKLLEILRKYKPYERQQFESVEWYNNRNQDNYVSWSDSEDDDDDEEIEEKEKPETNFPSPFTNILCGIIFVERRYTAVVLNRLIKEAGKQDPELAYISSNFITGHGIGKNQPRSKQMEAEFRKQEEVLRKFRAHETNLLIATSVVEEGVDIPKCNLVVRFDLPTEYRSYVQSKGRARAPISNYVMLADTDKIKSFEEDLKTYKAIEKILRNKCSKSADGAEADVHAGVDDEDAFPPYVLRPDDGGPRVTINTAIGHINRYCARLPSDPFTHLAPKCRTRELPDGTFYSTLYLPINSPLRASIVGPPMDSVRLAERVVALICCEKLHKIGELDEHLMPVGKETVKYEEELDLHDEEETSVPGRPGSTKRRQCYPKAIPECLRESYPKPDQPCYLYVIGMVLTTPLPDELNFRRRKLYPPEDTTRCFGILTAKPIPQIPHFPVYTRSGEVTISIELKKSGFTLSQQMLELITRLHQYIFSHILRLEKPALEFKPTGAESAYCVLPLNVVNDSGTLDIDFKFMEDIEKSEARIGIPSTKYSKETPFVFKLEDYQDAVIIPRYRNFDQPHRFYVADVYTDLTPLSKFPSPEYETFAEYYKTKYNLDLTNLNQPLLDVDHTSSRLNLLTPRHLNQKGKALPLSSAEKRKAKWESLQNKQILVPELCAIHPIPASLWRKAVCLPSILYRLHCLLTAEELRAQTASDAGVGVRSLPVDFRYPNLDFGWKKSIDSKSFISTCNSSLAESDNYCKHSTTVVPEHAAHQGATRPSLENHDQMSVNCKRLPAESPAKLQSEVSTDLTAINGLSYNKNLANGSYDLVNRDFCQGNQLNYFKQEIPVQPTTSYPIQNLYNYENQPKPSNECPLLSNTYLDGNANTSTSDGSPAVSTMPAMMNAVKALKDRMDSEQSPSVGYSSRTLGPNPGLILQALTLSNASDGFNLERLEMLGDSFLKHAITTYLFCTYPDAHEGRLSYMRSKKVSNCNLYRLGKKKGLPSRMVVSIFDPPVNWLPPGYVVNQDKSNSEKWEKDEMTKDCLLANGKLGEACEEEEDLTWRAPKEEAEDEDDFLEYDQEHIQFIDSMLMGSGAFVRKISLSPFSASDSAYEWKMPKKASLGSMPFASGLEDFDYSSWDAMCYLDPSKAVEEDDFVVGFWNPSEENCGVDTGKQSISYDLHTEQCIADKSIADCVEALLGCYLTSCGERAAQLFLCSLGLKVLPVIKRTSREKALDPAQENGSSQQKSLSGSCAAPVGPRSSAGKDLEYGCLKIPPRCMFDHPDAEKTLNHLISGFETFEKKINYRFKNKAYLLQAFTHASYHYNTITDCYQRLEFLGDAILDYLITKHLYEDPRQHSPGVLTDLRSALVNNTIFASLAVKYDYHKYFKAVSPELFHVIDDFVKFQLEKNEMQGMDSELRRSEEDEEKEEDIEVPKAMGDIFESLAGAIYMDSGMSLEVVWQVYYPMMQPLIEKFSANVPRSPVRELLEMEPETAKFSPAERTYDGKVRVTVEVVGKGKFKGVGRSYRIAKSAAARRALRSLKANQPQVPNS
UniProt Q8R3C0: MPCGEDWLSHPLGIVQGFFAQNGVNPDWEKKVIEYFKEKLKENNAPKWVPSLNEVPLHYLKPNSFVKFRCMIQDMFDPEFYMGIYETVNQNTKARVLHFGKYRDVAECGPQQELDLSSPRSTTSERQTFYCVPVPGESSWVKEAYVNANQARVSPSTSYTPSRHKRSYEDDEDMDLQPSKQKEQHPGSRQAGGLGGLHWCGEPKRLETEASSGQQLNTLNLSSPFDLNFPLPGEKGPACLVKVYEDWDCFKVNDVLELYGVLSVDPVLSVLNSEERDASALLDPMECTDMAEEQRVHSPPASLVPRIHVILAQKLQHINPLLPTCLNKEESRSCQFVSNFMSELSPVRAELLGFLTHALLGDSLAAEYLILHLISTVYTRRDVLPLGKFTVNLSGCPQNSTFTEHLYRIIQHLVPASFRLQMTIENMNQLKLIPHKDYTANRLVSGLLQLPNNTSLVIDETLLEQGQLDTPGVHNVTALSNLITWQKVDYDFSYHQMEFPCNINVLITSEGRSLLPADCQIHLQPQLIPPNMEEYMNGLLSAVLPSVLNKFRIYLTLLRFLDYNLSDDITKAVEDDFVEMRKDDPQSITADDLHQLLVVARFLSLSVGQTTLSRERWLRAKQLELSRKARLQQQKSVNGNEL
UniProt Q8VE38: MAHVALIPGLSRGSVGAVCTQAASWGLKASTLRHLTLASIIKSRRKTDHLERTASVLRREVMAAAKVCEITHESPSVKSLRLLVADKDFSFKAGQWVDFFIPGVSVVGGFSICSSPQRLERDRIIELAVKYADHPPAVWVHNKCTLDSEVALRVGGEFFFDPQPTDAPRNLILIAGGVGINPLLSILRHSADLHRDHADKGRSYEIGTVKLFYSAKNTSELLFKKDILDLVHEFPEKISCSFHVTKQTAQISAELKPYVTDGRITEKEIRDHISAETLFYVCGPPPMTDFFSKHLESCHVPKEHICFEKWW
UniProt Q8VDT9: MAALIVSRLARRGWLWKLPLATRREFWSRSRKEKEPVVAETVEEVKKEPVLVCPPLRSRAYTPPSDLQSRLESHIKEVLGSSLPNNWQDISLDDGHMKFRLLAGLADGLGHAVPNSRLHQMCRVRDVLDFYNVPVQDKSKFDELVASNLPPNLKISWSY

Some of the results follow. Most values lie at the level of the controls, where differences are scatter.

Compound in this test: CN[C@@H]1C[C@H]2O[C@@](C)([C@@H]1OC)n1c3ccccc3c3c4c(c5c6ccccc6n2c5c31)C(=O)NC4 [staurosporine]
Nature of the test: log2 fold change of tryptic peptide abundance, ligand vs vehicle (limited proteolysis) (log2 ratio); higher = more trypsin-susceptible (destabilized). The note with it: ligand concentration: 20 uM; sample: mouse liver crude lysate; replicate design: treated separately.
Take “UniProt Q8R4U6 (peptide sequence: YVILNPSSKPK, peptide start residue: 255)”: the log2 fold change came to 0.756. For the target “UniProt Q8R418 (peptide sequence: LPSDPFTHLAPK, peptide start residue: 641)”, the log2 fold change was found to be 0.374. In the case of “UniProt Q8R3C0 (peptide sequence: AVEDDFVEMR, peptide start residue: 572)”, the log2 fold change turned out to be 0.148. Regarding “UniProt Q8VE38 (peptide sequence: NTSELLFKK, peptide start residue: 217)”, the log2 fold change was -0.327. Consider “UniProt Q8VDT9 (peptide sequence: VRDVLDFYNVPVQDK, peptide start residue: 124)”, for which the log2 fold change is -0.304.
